Data: article PMC10983951

B1: GAP45 (protein, UniProt Q7Z289 1-245)
chain: MGNACKKNTAKTPTRKEAEDLAEKERQEREAKEKAEAEEKARAEAEKNAADKAEAERRAAEAREREESARKEAEAEAARKAEAEAAEAERLRKEAEKKKAEEAKRKAEEEQRAAAEEAEQRAREEAERRKAEAAAAAERERQMQEALKQEEMSPREKYDKLASPEDSASETTMATQPQKVAEHSSAAVTDRSVVGYTVTPCDMAAIDETAKYLSKRCGCDLGDQHDENECPICRHIDLSDAPLLN
B2: SPM1 (protein, UniProt S8F1Y1 1-351)
chain: MSGGNSNTPKKLPSEEGSDYGYPQKPQKYLPKSEQAEPDYSACCKGNDAYKGASHGTVQFSHPEEAQKYAGAAAGAETIQRGRERVAADRQPRAAGDVPARRLHLSDVDEAHRGQSPSRHPGYCVEELCTCGMHKCIPSRAPVPFTGSTQYRQEFVPKPLPPPTQVSQVTLPPSLPFEAESSYRTEFVAKPLPPPAKFSEVKLPPTLPFHGESAYRTDYVPKPLPEVAKPVEVKLPPTLPFNAQSCYRSEYVAKPLPPPVQTVEVKLPPSLPFEGSTHYRDEFQVKPLPPATKVTEVKLPPSLPFDATSMYRSDYVAKSNPICPVSKLPQYPAATYPQNHVFWDPDTKQWY
B3: SPM2 (protein, UniProt S8GR18 1-357)
chain: MALPLDAWATAAHGSKAYVARSADVSRGACFSPAGVTRVSHQGIEPARPAGVSSRRLTQLRLAMSQQPEDRAHAPRGPTAYSCTALRDNVNEILRSATIPRDTDPVAAVLDRKRVDDYAGMRSDGINELRTPSHRWSAEVGKKRGLMTKNESVFVSDVLEHHGRPIDDSPEFQHPRVAAYLQQQCKPKCRSLQRHYGPDELHKAFYTKFEVVDKTTGRTEIMTARRPGSAAAIISLCNFDAYSTRSHKATSAQKQVSNIESTPLGLVPRKGAELPHKPSFTQTAASVCMKRSQLRCQDSWLTPSSDAPTIRHLGQSRRHVALPWLHRPTNRILQHLPQPRVQSRLVCQVDHAKKSPL

Target: FLAG-Myosin-A WT (complement) (Toxoplasma gondii) (UniProt O00934)
Assay: proximity labelling; Biotinylation by Antibody Recognition (BAR): fixed, permeabilized FLAG-MyoA parasites, primary antibody and HRP-conjugated secondary antibody, biotin-phenol and hydrogen peroxide; streptavidin beads, mass spectrometry; parental strain as control

Question: How did the binding turn out when B1 was run?
Answer: Its binding is “binds”.

Question: With B2 as the binder, how does the binding read?
Answer: The binding was “binds”.

Question: Which binding does the source give for B3 here?
Answer: The binding was “binds”.

Results are given in words; binding and its absence hold for the method and conditions named. In cells and extracts the contact can be indirect. Here binding means that the protein was enriched with, or labelled near, the bait; the list need not be complete.
